Laboratory results published in publication doi:10.1101/2025.07.02.662776.
Results are given in words; binding and its absence hold for the method and conditions named. In cells and extracts the contact can be indirect. These calls come from enrichment with a bait or labelling near it, and not all partners need be listed. For some of these results: Sequences can lack the tags named with a protein.

The chains behind the UniProt entries cited, without tags or fusion partners.
UniProt Q8K284: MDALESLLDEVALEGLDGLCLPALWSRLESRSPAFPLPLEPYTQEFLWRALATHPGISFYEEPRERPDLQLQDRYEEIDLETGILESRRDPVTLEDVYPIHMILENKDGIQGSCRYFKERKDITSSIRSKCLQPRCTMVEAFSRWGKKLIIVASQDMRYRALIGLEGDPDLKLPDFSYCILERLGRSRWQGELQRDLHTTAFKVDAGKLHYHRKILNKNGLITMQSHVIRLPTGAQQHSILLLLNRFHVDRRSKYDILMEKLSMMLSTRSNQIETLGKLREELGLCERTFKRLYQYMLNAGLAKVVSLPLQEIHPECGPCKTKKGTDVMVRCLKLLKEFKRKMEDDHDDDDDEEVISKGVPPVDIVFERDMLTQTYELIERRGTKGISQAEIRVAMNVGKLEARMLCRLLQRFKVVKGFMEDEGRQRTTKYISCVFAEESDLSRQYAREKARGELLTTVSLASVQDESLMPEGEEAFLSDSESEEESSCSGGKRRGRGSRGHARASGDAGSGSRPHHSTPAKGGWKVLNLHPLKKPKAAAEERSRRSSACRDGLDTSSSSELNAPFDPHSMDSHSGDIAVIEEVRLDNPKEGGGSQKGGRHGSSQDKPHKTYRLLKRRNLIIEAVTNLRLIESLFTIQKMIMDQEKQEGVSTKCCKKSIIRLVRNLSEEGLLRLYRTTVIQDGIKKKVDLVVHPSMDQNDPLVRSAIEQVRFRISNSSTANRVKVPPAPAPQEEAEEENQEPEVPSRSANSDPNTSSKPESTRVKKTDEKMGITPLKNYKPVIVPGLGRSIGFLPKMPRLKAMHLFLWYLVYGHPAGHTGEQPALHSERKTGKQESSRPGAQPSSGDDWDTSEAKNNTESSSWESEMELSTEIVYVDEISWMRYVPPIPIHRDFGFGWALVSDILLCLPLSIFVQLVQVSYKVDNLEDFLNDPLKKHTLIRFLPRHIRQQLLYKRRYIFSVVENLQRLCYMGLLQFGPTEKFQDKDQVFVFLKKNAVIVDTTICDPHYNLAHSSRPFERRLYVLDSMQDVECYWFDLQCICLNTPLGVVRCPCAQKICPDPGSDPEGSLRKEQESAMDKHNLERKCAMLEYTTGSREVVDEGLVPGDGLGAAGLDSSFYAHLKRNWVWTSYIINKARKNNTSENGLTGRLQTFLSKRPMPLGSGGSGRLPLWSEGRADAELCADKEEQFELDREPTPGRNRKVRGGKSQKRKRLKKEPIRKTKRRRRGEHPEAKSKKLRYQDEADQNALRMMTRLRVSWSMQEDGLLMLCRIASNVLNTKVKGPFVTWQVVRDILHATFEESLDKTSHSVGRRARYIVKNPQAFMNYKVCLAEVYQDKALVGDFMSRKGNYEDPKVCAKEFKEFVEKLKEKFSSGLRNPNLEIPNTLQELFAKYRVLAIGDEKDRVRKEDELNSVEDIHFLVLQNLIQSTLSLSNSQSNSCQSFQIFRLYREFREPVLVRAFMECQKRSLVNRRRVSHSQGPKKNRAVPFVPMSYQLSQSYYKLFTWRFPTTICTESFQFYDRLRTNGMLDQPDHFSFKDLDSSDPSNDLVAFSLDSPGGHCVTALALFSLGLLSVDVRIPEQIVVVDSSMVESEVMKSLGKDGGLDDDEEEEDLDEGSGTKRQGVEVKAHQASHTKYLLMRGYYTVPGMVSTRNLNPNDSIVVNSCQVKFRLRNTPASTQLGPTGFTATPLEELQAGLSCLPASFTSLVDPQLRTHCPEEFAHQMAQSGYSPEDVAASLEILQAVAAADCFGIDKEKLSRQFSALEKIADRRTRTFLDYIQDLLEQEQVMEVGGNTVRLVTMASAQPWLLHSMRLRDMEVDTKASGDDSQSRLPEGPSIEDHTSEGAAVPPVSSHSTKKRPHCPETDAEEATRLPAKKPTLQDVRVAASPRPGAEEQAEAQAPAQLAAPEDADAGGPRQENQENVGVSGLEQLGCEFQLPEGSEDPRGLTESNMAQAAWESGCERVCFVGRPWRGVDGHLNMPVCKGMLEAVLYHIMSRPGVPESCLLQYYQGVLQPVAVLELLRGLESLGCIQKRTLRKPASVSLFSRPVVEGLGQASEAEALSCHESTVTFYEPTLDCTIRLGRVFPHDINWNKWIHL
UniProt P23198: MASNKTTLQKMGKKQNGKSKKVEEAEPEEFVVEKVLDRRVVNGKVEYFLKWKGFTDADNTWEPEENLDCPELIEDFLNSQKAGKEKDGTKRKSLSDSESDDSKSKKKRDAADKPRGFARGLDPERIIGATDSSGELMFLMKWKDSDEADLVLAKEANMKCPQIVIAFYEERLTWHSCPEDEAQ
UniProt Q6PDQ2: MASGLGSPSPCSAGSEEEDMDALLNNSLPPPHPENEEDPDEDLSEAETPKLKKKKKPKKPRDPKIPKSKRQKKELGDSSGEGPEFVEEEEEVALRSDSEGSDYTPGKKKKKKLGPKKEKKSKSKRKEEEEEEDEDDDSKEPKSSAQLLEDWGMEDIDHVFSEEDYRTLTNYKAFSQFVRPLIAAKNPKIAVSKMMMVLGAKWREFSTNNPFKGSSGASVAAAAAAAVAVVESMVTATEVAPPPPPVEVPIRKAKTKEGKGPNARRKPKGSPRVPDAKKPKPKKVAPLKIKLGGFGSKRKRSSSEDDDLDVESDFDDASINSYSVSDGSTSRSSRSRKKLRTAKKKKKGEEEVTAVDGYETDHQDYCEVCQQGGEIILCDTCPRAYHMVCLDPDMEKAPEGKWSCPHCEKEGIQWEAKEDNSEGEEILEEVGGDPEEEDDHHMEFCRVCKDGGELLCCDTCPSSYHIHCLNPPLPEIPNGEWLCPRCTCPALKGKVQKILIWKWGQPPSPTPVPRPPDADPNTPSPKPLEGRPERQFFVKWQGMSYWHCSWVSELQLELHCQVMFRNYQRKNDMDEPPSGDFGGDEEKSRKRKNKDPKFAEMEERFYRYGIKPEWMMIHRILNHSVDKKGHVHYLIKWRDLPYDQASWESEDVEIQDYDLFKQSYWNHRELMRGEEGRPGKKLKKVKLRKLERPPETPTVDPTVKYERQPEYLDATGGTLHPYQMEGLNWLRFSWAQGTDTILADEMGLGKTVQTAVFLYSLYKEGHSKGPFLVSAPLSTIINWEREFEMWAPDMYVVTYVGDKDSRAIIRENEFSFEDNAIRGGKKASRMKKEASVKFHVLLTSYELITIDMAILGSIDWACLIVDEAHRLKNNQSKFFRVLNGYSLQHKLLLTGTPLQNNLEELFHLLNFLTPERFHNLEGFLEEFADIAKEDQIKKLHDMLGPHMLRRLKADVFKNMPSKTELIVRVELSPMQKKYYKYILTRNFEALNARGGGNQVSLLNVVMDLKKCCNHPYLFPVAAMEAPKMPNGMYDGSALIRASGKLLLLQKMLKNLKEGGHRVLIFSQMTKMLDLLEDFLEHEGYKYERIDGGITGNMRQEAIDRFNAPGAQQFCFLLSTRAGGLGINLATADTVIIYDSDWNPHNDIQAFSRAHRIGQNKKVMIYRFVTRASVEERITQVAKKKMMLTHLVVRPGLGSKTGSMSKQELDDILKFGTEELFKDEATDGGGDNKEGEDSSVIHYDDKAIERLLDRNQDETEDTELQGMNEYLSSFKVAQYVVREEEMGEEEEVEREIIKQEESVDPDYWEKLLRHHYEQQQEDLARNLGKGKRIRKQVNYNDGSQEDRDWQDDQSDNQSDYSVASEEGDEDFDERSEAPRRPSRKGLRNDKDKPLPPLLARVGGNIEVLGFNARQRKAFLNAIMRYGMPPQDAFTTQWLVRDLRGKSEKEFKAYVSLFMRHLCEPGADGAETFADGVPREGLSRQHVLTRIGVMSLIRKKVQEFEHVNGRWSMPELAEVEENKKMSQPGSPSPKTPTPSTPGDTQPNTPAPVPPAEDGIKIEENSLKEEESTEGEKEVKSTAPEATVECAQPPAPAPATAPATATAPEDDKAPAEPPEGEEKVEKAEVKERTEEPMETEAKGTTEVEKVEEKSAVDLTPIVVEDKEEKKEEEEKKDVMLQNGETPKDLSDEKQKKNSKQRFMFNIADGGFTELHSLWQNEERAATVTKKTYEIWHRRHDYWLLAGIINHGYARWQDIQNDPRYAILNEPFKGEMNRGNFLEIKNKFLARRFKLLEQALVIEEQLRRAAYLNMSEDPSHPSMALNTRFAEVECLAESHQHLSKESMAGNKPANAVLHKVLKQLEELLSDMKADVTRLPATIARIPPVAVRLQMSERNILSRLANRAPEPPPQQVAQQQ

Experiments:
[1] = biological target: T1, ADNP, endogenously tagged, in mouse embryonic stem cells (mouse (endogenous in mESC)) (UniProt Q9Z103); assay: affinity purification with mass spectrometry
T1 sequence: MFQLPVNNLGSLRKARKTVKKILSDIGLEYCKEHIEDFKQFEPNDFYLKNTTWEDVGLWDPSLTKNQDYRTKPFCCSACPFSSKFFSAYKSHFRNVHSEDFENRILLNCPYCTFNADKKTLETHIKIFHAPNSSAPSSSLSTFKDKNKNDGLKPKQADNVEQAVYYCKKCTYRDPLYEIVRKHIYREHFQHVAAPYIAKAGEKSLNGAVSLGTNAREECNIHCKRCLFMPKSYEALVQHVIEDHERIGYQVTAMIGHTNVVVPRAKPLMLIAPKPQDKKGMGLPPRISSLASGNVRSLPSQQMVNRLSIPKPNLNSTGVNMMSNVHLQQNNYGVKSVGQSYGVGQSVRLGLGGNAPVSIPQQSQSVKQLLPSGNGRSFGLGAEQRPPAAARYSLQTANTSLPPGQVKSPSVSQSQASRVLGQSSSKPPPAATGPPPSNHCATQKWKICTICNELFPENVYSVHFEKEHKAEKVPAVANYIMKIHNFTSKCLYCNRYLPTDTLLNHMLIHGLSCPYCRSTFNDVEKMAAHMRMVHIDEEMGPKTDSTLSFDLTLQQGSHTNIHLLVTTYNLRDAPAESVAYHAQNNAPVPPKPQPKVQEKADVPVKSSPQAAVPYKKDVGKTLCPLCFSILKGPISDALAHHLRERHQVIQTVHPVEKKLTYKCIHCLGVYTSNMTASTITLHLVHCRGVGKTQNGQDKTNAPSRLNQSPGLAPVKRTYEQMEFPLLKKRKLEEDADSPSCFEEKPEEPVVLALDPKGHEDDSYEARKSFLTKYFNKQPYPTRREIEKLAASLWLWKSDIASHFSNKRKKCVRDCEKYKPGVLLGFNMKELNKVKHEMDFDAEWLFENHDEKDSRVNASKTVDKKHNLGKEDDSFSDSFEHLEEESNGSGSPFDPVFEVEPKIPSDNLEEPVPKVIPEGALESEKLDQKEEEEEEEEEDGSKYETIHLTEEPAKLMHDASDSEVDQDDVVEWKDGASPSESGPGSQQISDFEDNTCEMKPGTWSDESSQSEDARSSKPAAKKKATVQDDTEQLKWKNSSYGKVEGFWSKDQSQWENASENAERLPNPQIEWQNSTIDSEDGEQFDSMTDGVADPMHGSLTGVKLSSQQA

[2] = biological target: GTF3C1, endogenously tagged, in mouse embryonic stem cells (mouse (endogenous in mESC)) (UniProt Q8K284); assay: affinity purification with mass spectrometry

Molecule: GTF3C1, endogenous, in mouse embryonic stem cells (from UniProt Q8K284 1-2101)
- binding [1]: binds

Molecule: CBX3 (HP1γ), endogenous, in mouse embryonic stem cells (from UniProt P23198 1-183)
- binding [2]: binds

Molecule: CHD4, endogenous, in mouse embryonic stem cells (from UniProt Q6PDQ2 1-1915)
- binding [2]: binds

B1: ADNP, endogenous, in mouse embryonic stem cells (protein, UniProt Q9Z103 1-1108)
chain: MFQLPVNNLGSLRKARKTVKKILSDIGLEYCKEHIEDFKQFEPNDFYLKNTTWEDVGLWDPSLTKNQDYRTKPFCCSACPFSSKFFSAYKSHFRNVHSEDFENRILLNCPYCTFNADKKTLETHIKIFHAPNSSAPSSSLSTFKDKNKNDGLKPKQADNVEQAVYYCKKCTYRDPLYEIVRKHIYREHFQHVAAPYIAKAGEKSLNGAVSLGTNAREECNIHCKRCLFMPKSYEALVQHVIEDHERIGYQVTAMIGHTNVVVPRAKPLMLIAPKPQDKKGMGLPPRISSLASGNVRSLPSQQMVNRLSIPKPNLNSTGVNMMSNVHLQQNNYGVKSVGQSYGVGQSVRLGLGGNAPVSIPQQSQSVKQLLPSGNGRSFGLGAEQRPPAAARYSLQTANTSLPPGQVKSPSVSQSQASRVLGQSSSKPPPAATGPPPSNHCATQKWKICTICNELFPENVYSVHFEKEHKAEKVPAVANYIMKIHNFTSKCLYCNRYLPTDTLLNHMLIHGLSCPYCRSTFNDVEKMAAHMRMVHIDEEMGPKTDSTLSFDLTLQQGSHTNIHLLVTTYNLRDAPAESVAYHAQNNAPVPPKPQPKVQEKADVPVKSSPQAAVPYKKDVGKTLCPLCFSILKGPISDALAHHLRERHQVIQTVHPVEKKLTYKCIHCLGVYTSNMTASTITLHLVHCRGVGKTQNGQDKTNAPSRLNQSPGLAPVKRTYEQMEFPLLKKRKLEEDADSPSCFEEKPEEPVVLALDPKGHEDDSYEARKSFLTKYFNKQPYPTRREIEKLAASLWLWKSDIASHFSNKRKKCVRDCEKYKPGVLLGFNMKELNKVKHEMDFDAEWLFENHDEKDSRVNASKTVDKKHNLGKEDDSFSDSFEHLEEESNGSGSPFDPVFEVEPKIPSDNLEEPVPKVIPEGALESEKLDQKEEEEEEEEEDGSKYETIHLTEEPAKLMHDASDSEVDQDDVVEWKDGASPSESGPGSQQISDFEDNTCEMKPGTWSDESSQSEDARSSKPAAKKKATVQDDTEQLKWKNSSYGKVEGFWSKDQSQWENASENAERLPNPQIEWQNSTIDSEDGEQFDSMTDGVADPMHGSLTGVKLSSQQA
- binding [2]: binds

B2: GTF3C2, endogenous, in mouse embryonic stem cells (protein, UniProt Q8BL74 1-907)
chain: MDTCGVGYVALGEADPVGSMIVVDSPGQEELSQLDVKASETSGVEASIEMSLPPPLPGFEDSSDRRLPPDQESLTRLEQQDLSSEMSKVSNTRASKPSGRRGGRTARGAKRPQQRKPPSTPLVPGLLDQSNPLSTPMPKKRSQKSKGDLLLLKLSKGLDQPESPHPKRPPEDFETPSGERPRRRAAQVALLYLQELAEELSTALPAPPLSGPKSPKVSSPTKPKKTRQASSQGEEDGSARDEDFVLQVEGEDEEESEAPSENSSDPEPVAPRSTPRGPAAGKQKPHCRGMAPNGLPNYIMAPVWKCLHLTKDLREQHHSFWEFAEWIPVAWKWQLLSELEAAPYLPQEEKSPLFSVQREGIPEDGTIYRINRFSSITAHPERWDVSFFTGGPLWALDWCPVPEGSAASQYVALFSSPDMNETHPLSQLHSGPGLLQLWGLGTLQQESCPGNRAHFVYGIACDSGCIWDLKFCPSGAWEHPETLRKAPLLPRLGLLALACSDGKVLLFSLPHPEALLAQQPPDAMKPAIYKVQCLATLQVGSVQASDPSECGQCLSLAWMPTRPHHHLAAGYYNGMVVFWNLPTNSPLQRIRLSDGSLKLYPFQCFLAHDQAVRTIQWCKANSHFLVSAGSDRKIKFWDLRRPYEPINCIKRFLSTELSWLLPYNGVTVAQDNCYASYGLCGIHYIDAGYLGFKAYFTAPRKGTVWSLSGSDWLGTVAAGDISGELIAAILPDMASNPINVKKPAERRFPIYKADLIPYQDSPEDQDYSSTSSETPNPPKARTYTETINHHYLLFQDTDLSSFHNLLRREPMLRMQEGEGHSQLCLDRLQLEAIHKVRFSPNLDSYGWLVSGGQSGLVRIHFVRGLTSPLAHRVQLESRANFNAMFQPSFPTEGPGFSPSSHCLLPNP
- binding [1]: binds

B3: GTF3C3, endogenous, in mouse embryonic stem cells (protein, UniProt Q3TMP1 1-882)
chain: MSGFSPELIDYLEGKISFEEFERRREERKTREKKSVQEKGKSSPKENPDDSEVPSSSGIDSAKSQDKDANEGETSDGVSKSVHKVFASMLGETEDDEEEEEEEEEEETAEQPTAGDVFVLEMVLNRETKKMMKEKRPRSKLPRALRGLMGEANIRFARGEHEEAILMCMEIIRQAPLAYEPFSTLAMIYEDQGDMEKSLQFELIAAHLNPSDTEEWVRLAEMSLEQDNIKQAIFCYTKALKYEPTNVRYLWERSSLYEQMGDHKMAMDGYRRILNLLSPSDGERFMQLARDMAKSYYEANDSASAINIIEEAFSKHQGLVSMEDVNIAAELYISNKQYDKALEVITDFSGIILEKETLEEGTSEENKAAETVTCSIPDSVPIDITVKLMVCLVHLNILEPLNPLLTTLVEQNPEDMGDLYLDVAEAFLDVGEYNSALPLLSALVCSERYNLAVVWLRHAECLKALGYMERAAESYSKVVDLAPLHLDARISLSILQQQLGRPEKALEALEPMYDPDTLAQDANAAQQELKLLLHRSTLLFSQGKMYGYLDTLLTMLAMLLKVAMNRAQVCLISSSKSGERHLYLIKVSRDKISDNNEQETSNYDAKAIFAVLTSVLPKEDWWNLLLKAIYTLSDLARFQEAELLVDSSLEYYSFYDDRQKRKELEYFGLSAAILDKNFRKAYDYIRVMVMENVNKPQLWNIFNQVTMHSQDVRHHRFCLRLMLKNPDNHALCVLNGHNAFVSGSFKHALGQYVQAFRAYPSEPLYNLCIGLTFIHMASQKYVLKRHALTVQGFSFLNRYLSIRGPCQESFYNLGRGLHQLGLTHLAIHYYQKALALPPLVVEGIEVDQLDLRRDIAYNMSLIYQSSGNTAMAQKLLYTYCVI
- binding [1]: binds
- binding [2]: binds

B4: GTF3C4, endogenous, in mouse embryonic stem cells (protein, UniProt Q8BMQ2 1-817)
chain: MSEADQALVGPKADEPSPPAEEKDEGGGKEAAADAAPGPSASFRLMVTRREPAVKLQYAVSGLEPLSWSEDHRVSVSTARSVAVLELICDVHNPGQDLVIHRTSVPAPLNSCLLKVGSKTEVAECKEKFASSKDPTISQTFMLDRMFNPEGKALPPMRGFKYTSWSPMGCDANGRCLLAALTMDNRLTVQVNLNRLQWVQLVDLTEIYGDRLYETSYRLSKNEAPEGNLGDFAEFQRRHSMQTPVRMEWSSICTTQQVKHNNECRDVSSVLLAVLFENGNIAVWQFQLPFVGKESISSCNTIESGISSPSVLFWWEYEHNNRKMSGLIVGSAFGPVKILPVNLKAVKGYFTLRQPVVLWKEMDKLPVHSIKCVPLYHPYQKCSCSLVVAARGSYVFWCLLLISKAGLNVHNSHVTGLHSLPIVSITADKQNGTVYTCSSDGKVRQLIPIFTDVALKFEHQLIKLSDVFGSVRTHGIAVSPCGAYLAIITTEGMMNGLHPVNKNYQVQFVTLKTFEEAAAQLLESSVQNLFKQVDLIDLVRWKILKDKHIPQFLHEALEKKIESSGVTYFWRFKLFLLRILYQSMQKSPSEALWKPTHEDSKILLVDSPGMGDGEDEQQEEGTSKQGTKAGLQEKSKEGDTEETPEDSLTAGGDTGGREPVEEKLLEIQGKIEAVEMHLTREHMKRVLGEVYLHTWITENTSIPTRGLCNFLMSDEDYDDRTAQVLIGHISKKMNKQTFPERCSLCKEILPFTDRKQAVCSNGHIWLRCFLTYQSCQSLIYRRCLLHDSIARHPVPEDPDWIKRLLQSPCPFCDSPVF
- binding [1]: binds
- binding [2]: binds

B5: GTF3C5, endogenous, in mouse embryonic stem cells (protein, UniProt Q8R2T8 1-520)
chain: MAAAEPDADPKAAIPVDLRRERRLVCVEYPGVVRNEAKMLQTLGGEESVSRIYTDPTKRLELYFRPKDPYCHPVCANRFSTSSLLLRIRKRTRRRRGVLGDEAHPQVTFNLEIIGIISTIYKFQGMSDFQYLAVHTEAGGKHVSMYDRVLMRKPEKEEFFHQELPLYIPPPIFSRLDTPVDYFYRPETQHREGYHNPTISGENLIGLSRARRPHNAIFVNFEDTEVPEQPLEAAVQTWKKACTNPIDQKVEEELRKLFDIRPVWSRNAVKSNVSVHPDKLKILLPYMAYYMITGPWRSLWIRFGYDPRKHPDAKIYQVLDFRIRCGMKYGYGSRDMPVKAKRSTYNYSLPITVKKTSNQPGTMHDLKQGLGPSGTDGPRKLTYNKYKLKDSVYIFREGALPPYRQMFYQLCDLNVEELQKIVHRNDGTETVCTERDGWCLPKTTDHLRDTMSLMILQTIRSERPALFSNTGKADRGKEQLMFESGEEEEEEEEEEEEEEEDFKPSDGSENEMETEILDYV
- binding [1]: binds
- binding [2]: binds

B6: GTF3C6, endogenous, in mouse embryonic stem cells (protein, UniProt Q9D8P7 1-227)
chain: MASPNAMAAAVDPIWEDLEEEEEELEEEQFVLVELSGIIDSDFLSKCENKCKILGIDTERPIMQVDSYVFAGEYEDTLGTCVIFEEGVERVDPEGTDKTVLKYKCHTMKKLSMTRTLLTEKKEGEENIDGVEWLQMKDNDFSYRPNMICSFLHEHEDEAAGPASDKPVELEDQESQMKGSAEQTQEQEKVEHSEVEDPAPSGETPSEMESSVFMGTQDGNVSQNNQS
- binding [1]: binds
- binding [2]: binds
